In the supplement of paper PMC12819154, “High-throughput peptide-centric local stability assay extends protein–ligand identification to membrane proteins, tissues and bacteria” (Nature Structural & Molecular Biology, 2025):
This is one part of the list. Small differences around the control level are noise.

Chains of the proteins cited; added tags and fusions are not shown. Lines headed by an entry give the natural chain unless they say otherwise; changes in a name come on top.
UniProt P06400: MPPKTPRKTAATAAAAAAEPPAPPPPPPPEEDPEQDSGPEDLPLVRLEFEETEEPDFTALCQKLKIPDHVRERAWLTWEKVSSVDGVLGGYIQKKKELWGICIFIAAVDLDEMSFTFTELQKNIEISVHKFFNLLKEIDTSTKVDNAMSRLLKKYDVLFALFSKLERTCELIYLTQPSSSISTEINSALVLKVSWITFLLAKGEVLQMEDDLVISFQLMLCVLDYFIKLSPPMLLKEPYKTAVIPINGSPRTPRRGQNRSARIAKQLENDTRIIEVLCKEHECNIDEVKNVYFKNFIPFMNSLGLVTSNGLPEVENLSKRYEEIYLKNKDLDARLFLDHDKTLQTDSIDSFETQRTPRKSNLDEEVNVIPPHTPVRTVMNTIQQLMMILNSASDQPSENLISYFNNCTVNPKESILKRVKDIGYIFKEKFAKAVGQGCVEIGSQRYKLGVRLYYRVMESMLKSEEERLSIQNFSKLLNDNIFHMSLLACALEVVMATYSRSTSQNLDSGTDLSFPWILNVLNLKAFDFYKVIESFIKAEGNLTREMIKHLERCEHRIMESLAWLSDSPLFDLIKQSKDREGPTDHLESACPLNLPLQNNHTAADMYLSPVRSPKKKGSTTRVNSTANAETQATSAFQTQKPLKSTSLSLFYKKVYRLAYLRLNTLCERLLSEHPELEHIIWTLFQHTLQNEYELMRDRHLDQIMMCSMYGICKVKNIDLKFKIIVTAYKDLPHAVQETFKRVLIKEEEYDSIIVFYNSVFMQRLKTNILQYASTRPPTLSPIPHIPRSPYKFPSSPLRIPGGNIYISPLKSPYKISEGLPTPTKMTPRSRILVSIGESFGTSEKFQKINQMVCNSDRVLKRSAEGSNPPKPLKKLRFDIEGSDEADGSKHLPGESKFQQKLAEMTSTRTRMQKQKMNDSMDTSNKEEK
UniProt P05198, whole entry: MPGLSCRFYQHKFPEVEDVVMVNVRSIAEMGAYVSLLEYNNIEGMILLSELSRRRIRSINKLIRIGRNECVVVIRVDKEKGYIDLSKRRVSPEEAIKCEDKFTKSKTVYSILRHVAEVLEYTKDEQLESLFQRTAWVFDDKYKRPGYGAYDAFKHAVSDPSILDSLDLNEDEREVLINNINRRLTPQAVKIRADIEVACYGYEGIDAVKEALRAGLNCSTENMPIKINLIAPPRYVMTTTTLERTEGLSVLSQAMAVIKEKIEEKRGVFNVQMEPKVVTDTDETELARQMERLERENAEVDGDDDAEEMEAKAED
UniProt P04114: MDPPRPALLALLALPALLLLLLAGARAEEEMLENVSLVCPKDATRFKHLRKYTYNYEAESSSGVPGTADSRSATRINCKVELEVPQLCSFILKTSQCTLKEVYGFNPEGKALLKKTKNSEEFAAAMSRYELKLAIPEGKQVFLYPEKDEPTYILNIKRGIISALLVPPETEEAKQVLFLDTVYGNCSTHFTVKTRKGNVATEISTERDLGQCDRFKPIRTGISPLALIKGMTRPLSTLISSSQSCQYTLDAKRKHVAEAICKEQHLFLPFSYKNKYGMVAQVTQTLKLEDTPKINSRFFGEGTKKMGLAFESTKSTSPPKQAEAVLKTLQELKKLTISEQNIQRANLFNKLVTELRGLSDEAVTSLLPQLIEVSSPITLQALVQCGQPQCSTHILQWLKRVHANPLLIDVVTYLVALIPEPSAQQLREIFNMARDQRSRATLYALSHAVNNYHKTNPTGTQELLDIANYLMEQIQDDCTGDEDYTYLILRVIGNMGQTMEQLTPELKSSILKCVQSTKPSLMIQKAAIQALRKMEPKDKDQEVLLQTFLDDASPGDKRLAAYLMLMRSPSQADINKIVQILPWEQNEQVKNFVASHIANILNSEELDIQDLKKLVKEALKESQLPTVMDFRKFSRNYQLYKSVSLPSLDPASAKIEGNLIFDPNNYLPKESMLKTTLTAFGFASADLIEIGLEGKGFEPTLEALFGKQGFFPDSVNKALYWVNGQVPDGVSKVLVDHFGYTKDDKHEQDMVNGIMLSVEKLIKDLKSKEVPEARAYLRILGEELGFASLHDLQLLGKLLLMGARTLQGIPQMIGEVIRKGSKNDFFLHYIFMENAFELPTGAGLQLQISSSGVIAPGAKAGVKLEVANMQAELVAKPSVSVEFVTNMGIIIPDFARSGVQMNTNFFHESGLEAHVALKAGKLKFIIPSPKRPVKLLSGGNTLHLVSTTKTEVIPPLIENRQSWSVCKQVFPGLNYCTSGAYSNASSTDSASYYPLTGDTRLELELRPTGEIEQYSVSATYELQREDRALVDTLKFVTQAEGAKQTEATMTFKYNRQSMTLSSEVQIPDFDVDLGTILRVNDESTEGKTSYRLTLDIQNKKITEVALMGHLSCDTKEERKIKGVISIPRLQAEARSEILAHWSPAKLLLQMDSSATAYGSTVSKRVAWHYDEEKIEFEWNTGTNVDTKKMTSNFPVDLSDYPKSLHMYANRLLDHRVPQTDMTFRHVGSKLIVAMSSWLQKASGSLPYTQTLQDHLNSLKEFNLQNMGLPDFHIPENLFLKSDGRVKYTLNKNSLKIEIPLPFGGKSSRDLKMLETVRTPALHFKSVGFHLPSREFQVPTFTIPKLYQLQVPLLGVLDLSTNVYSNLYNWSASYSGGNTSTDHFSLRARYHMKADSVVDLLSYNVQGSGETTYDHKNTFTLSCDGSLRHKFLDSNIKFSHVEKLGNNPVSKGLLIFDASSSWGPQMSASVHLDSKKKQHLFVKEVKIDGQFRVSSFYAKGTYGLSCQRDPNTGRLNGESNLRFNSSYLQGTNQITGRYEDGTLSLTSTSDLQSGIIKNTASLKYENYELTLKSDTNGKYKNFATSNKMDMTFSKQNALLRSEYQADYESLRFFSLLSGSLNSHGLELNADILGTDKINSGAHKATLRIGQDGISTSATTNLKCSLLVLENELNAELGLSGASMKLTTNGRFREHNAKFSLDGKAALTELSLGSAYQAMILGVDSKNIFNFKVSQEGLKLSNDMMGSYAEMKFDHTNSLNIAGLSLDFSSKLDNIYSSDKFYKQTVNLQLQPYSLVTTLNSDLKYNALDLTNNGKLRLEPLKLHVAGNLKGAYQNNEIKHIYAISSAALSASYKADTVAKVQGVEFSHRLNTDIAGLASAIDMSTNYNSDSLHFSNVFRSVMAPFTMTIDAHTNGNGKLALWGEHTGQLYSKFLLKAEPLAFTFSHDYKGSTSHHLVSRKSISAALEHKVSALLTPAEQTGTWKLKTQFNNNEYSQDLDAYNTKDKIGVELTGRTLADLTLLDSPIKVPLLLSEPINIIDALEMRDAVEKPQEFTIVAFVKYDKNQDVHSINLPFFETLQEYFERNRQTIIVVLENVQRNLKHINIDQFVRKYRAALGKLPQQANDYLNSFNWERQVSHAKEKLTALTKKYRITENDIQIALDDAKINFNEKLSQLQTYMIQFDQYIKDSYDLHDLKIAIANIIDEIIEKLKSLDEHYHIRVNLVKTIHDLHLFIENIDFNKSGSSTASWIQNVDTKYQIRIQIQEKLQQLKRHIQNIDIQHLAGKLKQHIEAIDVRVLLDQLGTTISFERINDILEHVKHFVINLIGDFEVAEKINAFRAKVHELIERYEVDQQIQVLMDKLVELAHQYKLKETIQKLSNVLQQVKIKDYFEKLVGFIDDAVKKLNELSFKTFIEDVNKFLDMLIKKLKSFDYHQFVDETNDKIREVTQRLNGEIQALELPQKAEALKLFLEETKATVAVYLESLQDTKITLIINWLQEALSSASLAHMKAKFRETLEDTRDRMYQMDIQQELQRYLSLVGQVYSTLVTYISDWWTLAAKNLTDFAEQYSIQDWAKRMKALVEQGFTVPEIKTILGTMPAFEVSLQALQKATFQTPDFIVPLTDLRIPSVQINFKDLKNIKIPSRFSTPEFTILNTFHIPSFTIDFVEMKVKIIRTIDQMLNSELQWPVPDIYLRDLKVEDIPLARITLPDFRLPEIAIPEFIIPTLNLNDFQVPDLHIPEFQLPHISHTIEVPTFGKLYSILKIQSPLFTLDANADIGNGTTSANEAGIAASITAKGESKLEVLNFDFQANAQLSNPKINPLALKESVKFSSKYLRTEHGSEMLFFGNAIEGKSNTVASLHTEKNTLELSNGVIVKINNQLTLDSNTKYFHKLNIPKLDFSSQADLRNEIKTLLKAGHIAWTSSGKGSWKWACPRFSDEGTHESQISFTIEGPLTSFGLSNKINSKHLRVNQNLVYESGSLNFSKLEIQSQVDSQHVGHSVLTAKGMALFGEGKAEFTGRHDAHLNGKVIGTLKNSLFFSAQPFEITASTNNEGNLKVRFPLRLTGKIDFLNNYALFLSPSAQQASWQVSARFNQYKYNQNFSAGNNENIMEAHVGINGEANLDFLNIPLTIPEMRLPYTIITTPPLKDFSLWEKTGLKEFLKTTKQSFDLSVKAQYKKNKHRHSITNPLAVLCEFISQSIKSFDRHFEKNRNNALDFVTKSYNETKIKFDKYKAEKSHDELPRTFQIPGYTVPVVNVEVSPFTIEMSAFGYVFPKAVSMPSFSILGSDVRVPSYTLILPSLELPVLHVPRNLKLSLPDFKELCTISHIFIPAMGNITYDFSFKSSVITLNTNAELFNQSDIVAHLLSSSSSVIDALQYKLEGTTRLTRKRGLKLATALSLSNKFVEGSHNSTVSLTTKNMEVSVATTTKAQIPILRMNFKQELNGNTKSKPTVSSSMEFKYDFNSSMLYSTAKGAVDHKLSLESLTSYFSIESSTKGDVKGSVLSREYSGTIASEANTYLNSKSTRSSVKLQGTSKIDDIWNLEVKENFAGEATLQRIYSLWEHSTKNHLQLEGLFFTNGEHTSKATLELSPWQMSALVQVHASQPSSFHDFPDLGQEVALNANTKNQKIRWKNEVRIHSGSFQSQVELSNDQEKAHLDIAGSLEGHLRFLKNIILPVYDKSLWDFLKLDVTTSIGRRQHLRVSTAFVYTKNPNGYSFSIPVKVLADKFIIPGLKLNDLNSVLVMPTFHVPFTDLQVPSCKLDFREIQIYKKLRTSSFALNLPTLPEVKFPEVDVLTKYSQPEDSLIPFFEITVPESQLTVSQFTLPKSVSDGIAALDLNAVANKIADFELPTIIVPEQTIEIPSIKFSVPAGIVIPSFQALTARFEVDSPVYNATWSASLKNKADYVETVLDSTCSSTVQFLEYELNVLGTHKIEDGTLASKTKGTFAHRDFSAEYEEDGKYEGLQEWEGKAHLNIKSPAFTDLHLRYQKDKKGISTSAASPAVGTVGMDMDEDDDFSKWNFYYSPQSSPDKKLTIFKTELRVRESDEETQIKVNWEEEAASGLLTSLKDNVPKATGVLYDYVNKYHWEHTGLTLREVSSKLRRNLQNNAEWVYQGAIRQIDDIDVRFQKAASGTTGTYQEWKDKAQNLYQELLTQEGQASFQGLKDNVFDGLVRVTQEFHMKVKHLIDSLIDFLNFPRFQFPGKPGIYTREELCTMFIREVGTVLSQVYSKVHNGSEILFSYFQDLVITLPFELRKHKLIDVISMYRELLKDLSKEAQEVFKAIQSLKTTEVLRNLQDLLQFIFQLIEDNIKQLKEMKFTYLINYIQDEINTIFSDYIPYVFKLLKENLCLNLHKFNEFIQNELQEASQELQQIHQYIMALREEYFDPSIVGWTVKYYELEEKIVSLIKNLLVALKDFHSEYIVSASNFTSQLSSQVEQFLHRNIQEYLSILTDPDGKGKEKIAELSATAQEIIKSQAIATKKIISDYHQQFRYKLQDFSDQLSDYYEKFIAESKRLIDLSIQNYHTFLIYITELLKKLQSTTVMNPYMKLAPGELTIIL
UniProt P12829: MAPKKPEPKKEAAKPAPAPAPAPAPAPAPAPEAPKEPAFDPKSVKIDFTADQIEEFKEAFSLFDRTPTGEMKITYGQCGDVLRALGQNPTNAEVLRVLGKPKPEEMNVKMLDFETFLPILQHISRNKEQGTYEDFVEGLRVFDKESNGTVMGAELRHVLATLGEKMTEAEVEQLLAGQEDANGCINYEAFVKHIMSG
UniProt P01008, whole entry: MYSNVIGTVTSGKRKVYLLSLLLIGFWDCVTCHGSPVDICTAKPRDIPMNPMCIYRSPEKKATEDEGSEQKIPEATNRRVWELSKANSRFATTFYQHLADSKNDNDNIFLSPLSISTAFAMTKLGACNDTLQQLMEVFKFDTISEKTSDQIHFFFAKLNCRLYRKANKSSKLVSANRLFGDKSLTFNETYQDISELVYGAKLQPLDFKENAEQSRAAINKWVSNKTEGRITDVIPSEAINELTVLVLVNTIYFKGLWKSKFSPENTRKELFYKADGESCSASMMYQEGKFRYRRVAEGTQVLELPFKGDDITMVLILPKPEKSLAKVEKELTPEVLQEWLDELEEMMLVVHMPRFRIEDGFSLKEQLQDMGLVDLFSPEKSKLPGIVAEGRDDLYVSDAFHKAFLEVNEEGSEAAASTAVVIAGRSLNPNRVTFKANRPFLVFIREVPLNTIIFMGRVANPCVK

Compound: Cc1nc(Nc2ncc(C(=O)Nc3c(C)cccc3Cl)s2)cc(N2CCN(CCO)CC2)n1 [dasatinib]
Assay: log2 fold change of tryptic peptide abundance, ligand vs vehicle (limited proteolysis) (log2 ratio); higher = more trypsin-susceptible (destabilized)
Conditions: ligand concentration: 5 uM; sample: K562 cleared lysate

Target | log2 fold change
ALAS1 (peptide sequence: QMLMDAGLPVVHCPSHIIPVR, peptide start residue: 513) (UniProt P13196) | -0.668
POLR2M (peptide sequence: FICKLPDKGK, peptide start residue: 40) (UniProt P0CAP2) | -0.421
RB1 (peptide sequence: LRFDIEGSDEADGSKHLPGESK, peptide start residue: 875) (UniProt P06400) | -0.821
EIF2S1 (peptide sequence: INLIAPPR, peptide start residue: 227) (UniProt P05198) | -0.0789
APOB (peptide sequence: LDNIYSSDKFYK, peptide start residue: 1770) (UniProt P04114) | 0.0929
MYL4 (peptide sequence: ESNGTVMGAELR, peptide start residue: 145) (UniProt P12829) | 0.117
SERPINC1 (peptide sequence: ATEDEGSEQKIPEATNR, peptide start residue: 62) (UniProt P01008) | 0.342
CDK4 (peptide sequence: DPHSGHFVALK, peptide start residue: 25) (UniProt P11802) | -0.224
HSPA8 (peptide sequence: RNTTIPTK, peptide start residue: 416) (UniProt P11142) | 0.727
UniProt P0C7V9 (peptide sequence: SQDRDFETMAK, peptide start residue: 60) | 0.0388

Pulled one by one from the list above (two):
Target | log2 fold change
UniProt P0C7V9 (peptide sequence: SQDRDFETMAK, peptide start residue: 60) | 0.0388
POLR2M (peptide sequence: FICKLPDKGK, peptide start residue: 40) (UniProt P0CAP2) | -0.421
